We go through two molecules from patent US20240343831A1 (Regeneron, published 2024).

By UniProt entry, the sequences of proteins in these tests, tags left out. Residues count along the entry.
UniProt O15393, residues 106-492: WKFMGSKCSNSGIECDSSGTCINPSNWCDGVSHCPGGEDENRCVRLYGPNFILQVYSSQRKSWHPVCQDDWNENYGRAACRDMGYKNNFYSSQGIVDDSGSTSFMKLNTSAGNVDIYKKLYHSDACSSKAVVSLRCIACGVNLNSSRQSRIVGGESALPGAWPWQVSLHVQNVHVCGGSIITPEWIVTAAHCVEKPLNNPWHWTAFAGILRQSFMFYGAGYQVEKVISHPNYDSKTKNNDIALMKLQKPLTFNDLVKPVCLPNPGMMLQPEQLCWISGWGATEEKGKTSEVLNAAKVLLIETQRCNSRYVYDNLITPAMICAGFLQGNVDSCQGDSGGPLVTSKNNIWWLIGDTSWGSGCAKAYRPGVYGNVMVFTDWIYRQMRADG

For test [1], the target named is T1, ectodomain of human TMPRSS2-myc-myc-His (human, UniProt O15393 106-492).
T1 construct: extracellular domain; also called hTMPRSS2-MMH; human TMPRSS2-MMH
In words: SPR Biacore T200, 25 C and 37 C; species of TMPRSS2 not given. (Surface plasmon resonance follows binding to a sensor surface in real time, without labels.)

Test [2] addresses T1, ectodomain of human TMPRSS2-myc-myc-His. Description: SPR Biacore T200, 25 C and 37 C.

Results are given in words; binding and its absence hold for the method and conditions named. Some binding calls cover weakened binding; strength is not graded here.

B1: mAb8029 (antibody, human IgG4 S228P, kappa, V domains shown)
VH: QLQLQESGPGLVKPSETLSLTCTVSGGSINSNSYYWGWIRQPPGKGLEWIGSIYYDRNTYYTPSLKSRVTISVDTSKNQFSLKLTSVTAADTAVYYCAREQVPGYYGMDVWGQGTTVTVSS
VL: DIQLTQSPSFLSASVGDRVTITCWASQGISRYLAWYQQKPGKTPKLLIYAASTLQSGVPSRFSGTGSGTDFTLTISNLQPEDFATYYCQQFDSYPWTFGQGTKVEIKR
notes: also called anti-TMPRSS2 mAb
For the molecule B1, in test [1], the binding entry was “binds”.

B2: mAb8021 (antibody, human IgG4 S228P, kappa, V domains shown)
VH: QVQLVQSGAEVKKPGASVRVSCKASGYTFTNYGITWVRQAPGQGLEWMGGISVYNGNTEYAEKFQGRVSMTTDTSTTTAYLELRSLKSDDTAVYFCARGQLDYFDPWGQGTLVTVSS
VL: EIVMTQSPATLSVSPGERATLSCRASQSVRSNLAWYQQKPGQAPSLLIYGASTRATGIPARFSGSGSGTEFTLTISSLQSEDFAVYFCLQYNNWWTFGQGTKVEIKR
notes: also called anti-TMPRSS2 mAb
On to B2, for which the binding result in test [2] and in test [1] was “binds” each time.
